Data taken from PubChem BioAssay AID893, deposited by NCATS (2007).

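Inhibition of a His-tagged, E. coli-produced human HSD17B10 is judged by how it slows the gain in NADH fluorescence from NAD+ reduction.
Each compound was run as a 15-point series from about 0.0007 to 57 µM.
Fitted half-maximal potency (AC50) from the inhibition curve; a lower value means a more potent inhibitor. The record's title names HSD17B4; its protocol and target entry give this enzyme.
Active means a well-fitted inhibition curve with a large enough effect; inconclusive means a weak, poorly fitted or top-concentration-only effect.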

Values are in nM.
These entries are mostly ones the record files as inconclusive; other results of the assay are not listed here.
A potency from a partial, single-point or poor curve is only a rough figure.

With Cc1nc2c(c(=O)n1Cc1ccccc1Cl)c1nc3ccccc3nc1n2Cc1ccco1 the assay gave potency 25118 nM (active). For O=C(Nc1cccc2c1C(=O)NC2=O)c1ccc(S(=O)(=O)N2CCCC2)cc1 the result was potency 39810 nM (inconclusive; inhibitor, single point). O=c1c(-c2ccc(F)cc2)nc2cnc(Oc3cccc(Cl)c3)nc2n1C[C@H]1CCCO1 read potency 31622 nM (inconclusive; inhibitor, single point). With O=c1c(-c2ccc(F)cc2)nc2cnc(N3CCNCC3)nc2n1Cc1ccc(F)cc1 the assay gave potency 6310 nM (inconclusive; inhibitor, single point).

CN1CCc2c(sc3c2C(=O)NC(c2ccco2)N3)C1 (configuration not stated) gave potency 25118 nM (active). CN1CCN(c2ncc3nc(-c4cccs4)c(=O)n(-c4ccccc4)c3n2)CC1 gave potency 25118 nM (inconclusive; inhibitor, single point). Nc1nc(N)c2nc(-c3ccccc3)c(N)nc2n1 gave potency 7943 nM (active). CCSc1nnc(NC(=O)CSc2nnc(Cc3cccn3C)n2-c2ccc(C)cc2)s1 gave potency 39810 nM (inconclusive; inhibitor, single point).

CCOC(=O)N1CCN(C(=O)COc2ccc3c(c2)C(=O)CC2(CCN(C(C)=O)CC2)O3)CC1 read potency 31622 nM (active). CC(C)Cn1nc(NC(=O)C2CCCO2)c2cc3ccccc3nc21 (configuration not stated) read potency 39810 nM (inconclusive; inhibitor, single point). With COCCn1c(=S)[nH]c2ccc(N(C)C)cc2c1=O the assay gave potency 31622 nM (inconclusive; inhibitor, single point). Cc1c(O)ccc2c3c(c(=O)oc12)CCC(C)C3 (configuration not stated) gave potency 31622 nM (active).

Result for CC(C)(C)NC(=O)Nc1ccc2nccnc2c1 was potency 31622 nM (active). COc1ccc2oc(=O)c(-c3nnc(NCc4ccco4)s3)cc2c1 read potency 7943 nM (inconclusive; inhibitor, partial curve). COc1ccc(-c2nc3cnc(N(C)C)nc3n(Cc3cccs3)c2=O)cc1 read potency 7943 nM (inconclusive; inhibitor, single point). COc1ccc(-c2nc3cnc(N4CCN(C)CC4)nc3n(CCc3ccccc3)c2=O)cc1 gave potency 31622 nM (inconclusive; inhibitor, single point).

For CCOC(=O)c1c(N)n(CCN2CCCCC2)c2nc3ccccc3nc12 the result was potency 10000 nM (active). With CN(C)c1ncc2ncc(=O)n(C)c2n1 the assay gave potency 31622 nM (active). With COc1cccc(Nc2ncc3nc(CCc4ccccc4)c(=O)n(Cc4cccs4)c3n2)c1 the assay gave potency 39810 nM (inconclusive; inhibitor, single point). For CN1Cc2sc(N)c(C#N)c2CC1(C)C the result was potency 39810 nM (inconclusive; inhibitor, single point).

For CN1CCN(c2ncc3nc(-c4cccc(C#N)c4)c(=O)n(Cc4ccc(F)cc4)c3n2)CC1 the result was potency 19952 nM (inconclusive; inhibitor, single point). CCNc1ncc2nc(-c3ccc(F)cc3)c(=O)n(Cc3ccc(F)cc3)c2n1 gave potency 31622 nM (inconclusive; inhibitor, single point). Result for CC(C)OCCCn1c(=NC(=O)c2ccncc2)c(C#N)cc2c(=O)n3ccccc3nc21 was potency 3162 nM (active). Cc1nc(=O)c(-c2ccccc2)c(C)n1-c1ccc(O)c(C(=O)O)c1 read potency 25118 nM (inconclusive; inhibitor, single point).

C[C@H](O)C(=O)C1=Nc2c(nc(N)[nH]c2=O)NC1 gave potency 31622 nM (inconclusive; inhibitor, single point). CN(C)CCNC(=O)c1ccc2c(c1)N(Cc1ccc(F)cc1)CCS2 gave potency 25118 nM (active). With CC(C)N(C(=O)Nc1ccc2nccnc2c1)C(C)C the assay gave potency 19952 nM (active). O=C(O)CCCC(=O)N1CCN(c2nc(-c3ccccc3)c3ccccc3n2)CC1 gave potency 31622 nM (inconclusive; inhibitor, single point).

With N#CCCn1c(=O)c(-c2cc(F)cc(F)c2)nc2cnc(Oc3cccc(Cl)c3)nc21 the assay gave potency 31622 nM (inconclusive; inhibitor, single point). O=c1c(-c2ccccc2)nc2cnc(Oc3ccccc3)nc2n1C[C@H]1CCCO1 read potency 31622 nM (inconclusive; inhibitor, single point). Result for COc1ccc(Oc2ncc3nc(-c4cccs4)c(=O)n(Cc4cccs4)c3n2)cc1 was potency 39810 nM (inconclusive; inhibitor, single point). COC1=CC23CCCN2CCc2cc4c(cc2C3C1O)OCO4 (configuration not stated) gave potency 25118 nM (inconclusive; inhibitor, single point).

For CCCCn1c(NC(=O)c2ccc(F)cc2)c(C#N)c2nc3ccccc3nc21 the result was potency 25118 nM (active). With COc1ccc(C2=CC(c3ccc(Cl)cc3)n3cnnc3N2)cc1OC (configuration not stated) the assay gave potency 31622 nM (inconclusive; inhibitor, single point). For COC(=O)COc1cc(C)cc2oc(=O)c3c(c12)CCCC3 the result was potency 31622 nM (inconclusive; inhibitor, single point). CCOC(=O)CNc1c(-c2ccc(F)cc2)nc2cnccn12 gave potency 31622 nM (active).

COc1ccc(C2C=C(c3ccc(Br)s3)Nc3ncnn32)cc1OC (configuration not stated) gave potency 31622 nM (inconclusive; inhibitor, single point). With Cc1cc(N=Cc2c(O)n(-c3ccc4c(c3)OCO4)c(=O)c3ccccc23)ccn1 the assay gave potency 39810 nM (inconclusive; inhibitor, single point). O=c1c(-c2ccccc2)nc2cnc(N3CCOCC3)nc2n1CCc1ccccc1 read potency 31622 nM (active). For CCCCn1c(SCC(=O)NCc2ccco2)nc2ccc(N3CCOCC3)cc2c1=O the result was potency 39810 nM (inconclusive; inhibitor, single point).

COc1ccc(-c2nc3cnc(OC)nc3n(CCc3ccccc3)c2=O)cc1 gave potency 7943 nM (active). For CC1CC2C3CCC4=CC(=O)C=C[C@@]4(C)[C@]3(F)C(O)C[C@]2(C)[C@]1(O)C(=O)CO (some centres not stated) the result was potency 19952 nM (inconclusive; inhibitor, single point). CN(C)c1ncc2nc(-c3cccs3)c(=O)n(CCC#N)c2n1 gave potency 19952 nM (inconclusive; inhibitor, single point). O=C(COC(=O)c1cc(-c2cccs2)nc2ccccc12)NCc1ccco1 read potency 31622 nM (inconclusive; inhibitor, single point).

For COc1cccc(Cn2c(=O)c(-c3ccccc3)nc3cnc(N(C)C)nc32)c1 the result was potency 25118 nM (active). Result for CCNc1ncc2nc(-c3ccc(Cl)cc3)c(=O)n(-c3ccc(OC)cc3)c2n1 was potency 10000 nM (active). COc1cccc(-c2cc(C(F)(F)F)n3ncc(C(=O)NCC4CCCO4)c3n2)c1 (configuration not stated) read potency 25118 nM (inconclusive; inhibitor, single point). Result for CNC(=O)Oc1cccc2ccccc12 was potency 31622 nM (active).

Cc1ccc2cc3c(NC(=O)C(C)C)nn(C)c3nc2c1 read potency 39810 nM (inconclusive; inhibitor, single point). For NCCCNCCCCNCCCN the result was potency 39810 nM (inconclusive; inhibitor, single point). With CCCCC(=O)Nc1nn(CCC)c2nc3ccccc3cc12 the assay gave potency 39810 nM (inconclusive; inhibitor, single point). COc1cc(NC(=O)c2ccco2)c(OC)cc1NC(=O)c1cc(OC)c(OC)c(OC)c1 gave potency 39810 nM (inconclusive; inhibitor, single point).

For CC1(C)Cc2c(C#N)c(SCC(=O)c3ccccc3)nc(N3CCOCC3)c2CO1 the result was potency 31622 nM (inconclusive; inhibitor, single point). O=c1[nH]c2ccc(Cl)cc2c(-c2ccccc2)c1N1CCOCC1 gave potency 31622 nM (inconclusive; inhibitor, single point). With Cc1ccc(S(=O)(=O)N2CCCC2C(=O)NCCc2nc3ccccc3[nH]2)cc1 (configuration not stated) the assay gave potency 12589 nM (active). For COc1ccc(-c2oc3ccccc3c(=O)c2O)cc1OC the result was potency 31622 nM (active).

CS(=O)(=O)Nc1ccc([N+](=O)[O-])cc1Oc1ccccc1 read potency 39810 nM (inconclusive; inhibitor, single point).

The last 6 entries again:

* COc1cc(NC(=O)c2ccco2)c(OC)cc1NC(=O)c1cc(OC)c(OC)c(OC)c1 | potency 39810 nM (inconclusive; inhibitor, single point)
* CC1(C)Cc2c(C#N)c(SCC(=O)c3ccccc3)nc(N3CCOCC3)c2CO1 | potency 31622 nM (inconclusive; inhibitor, single point)
* O=c1[nH]c2ccc(Cl)cc2c(-c2ccccc2)c1N1CCOCC1 | potency 31622 nM (inconclusive; inhibitor, single point)
* Cc1ccc(S(=O)(=O)N2CCCC2C(=O)NCCc2nc3ccccc3[nH]2)cc1 (configuration not stated) | potency 12589 nM (active)
* COc1ccc(-c2oc3ccccc3c(=O)c2O)cc1OC | potency 31622 nM (active)
* CS(=O)(=O)Nc1ccc([N+](=O)[O-])cc1Oc1ccccc1 | potency 39810 nM (inconclusive; inhibitor, single point)